Measured values published in the supplement of paper PMC10735217.
The other results are listed elsewhere or left out. Repeats in this data set agree poorly, so a single value says little.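 The human kidney-derived cells carry a stably integrated construct of eight TEAD-binding elements driving luciferase, read by luminescence in a drug-repurposing library screen. A compound counts as a hit when its signal is more than five robust Z scores above the plate mean.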

Test system: HEK293A TEAD-LUC reporter
Assay: TEAD-luciferase reporter activity (YAP activation), robust Z score vs plate; higher = stronger YAP/TEAD activation
Conditions: 24 h

Row | Compound | TEAD-luciferase reporter activity (compound concentration: 200 nM) | TEAD-luciferase reporter activity (compound concentration: 2 uM) | TEAD-luciferase reporter activity (compound concentration: 10 uM)
1 | COc1cccc(CCN(C)CCCC(C#N)(c2ccc(OC)c(OC)c2)C(C)C)c1 (configuration not stated) | inactive: -0.24 | inactive: -1.28 | inactive: -1.01
2 | COc1c2occc2cc2ccc(=O)oc12 [Methoxsalen298-81-7] | inactive: 1.2 | – | inactive: 0.97
3 | COc1c2occc2cc2ccc(=O)oc12 [methoxsalen, Toronto] | – | inactive: -1.2 | –
4 | NCCCCCC(=O)O [6-Aminocaproic acid] | inactive: -1.16 | – | inactive: 0.542
5 | CCc1cccc2cc(C(O)CNC(C)(C)C)oc12 (configuration not stated) [bufuralol] | inactive: 0.283 | inactive: -2.06 | inactive: -1.52
6 | COc1ccccc1N1CCN(CCC2CCc3ccccc3C2=O)CC1 (configuration not stated) | inactive: -0.378 | inactive: -2.24 | inactive: 1.19
7 | O=C(O)Cc1ccc(-c2ccccc2)cc1 [felbinac] | inactive: 3.02 | inactive: 2.09 | inactive: -0.378
8 | NC(=O)NC(CC(=O)O)C(=O)O (configuration not stated) [urazamide] | inactive: -0.244 | inactive: -1.92 | inactive: 0.16
9 | NC(=O)NC(=O)Cc1ccccc1 | inactive: -0.252 | inactive: 2.43 | inactive: 0.376
10 | NCCCC(N)C(=O)O (configuration not stated) [ornithine phenylacetate] | inactive: 0.558 | inactive: -1.49 | inactive: 1.41
11 | CN(C)S(=O)(=O)c1cc2c(c3c1CCCC3)NC(=O)/C2=N/O | inactive: -0.731 | inactive: 0.787 | inactive: -0.00192
12 | C[C@@]12CCC[C@H]1[C@@H]1CC[C@H]3CCCC[C@]3(C)[C@H]1CC2 [(5alpha)-androstane] | inactive: 3.88 | inactive: -2.02 | inactive: -2.52
13 | CNCCc1ccccn1 [betahistine, Labopharm] | inactive: -2.3 | inactive: -1.91 | inactive: -0.633
14 | CN[C@@H](CC(C)C)C(=O)NCCCC(c1ccc(F)cc1)c1ccc(F)cc1 | inactive: -0.439 | inactive: 0.78 | inactive: 4.87
15 | Cc1c(OC=C2NCCN2)ccc(Cl)c1NS(C)(=O)=O [Dabuzalgron] | inactive: -1.39 | inactive: -2.27 | inactive: 1.51
16 | Cc1nnc(C(=O)NC(C)(C)C2=NC(C(=O)NCc3ccc(F)cc3)C(=O)C(=O)N2C)o1 (configuration not stated) [raltegravir] | inactive: 4.25 | inactive: -1.46 | inactive: 0.715
17 | CN(C)C(=O)CCn1nc(Nc2ccc3c(c2)OC(F)(F)O3)nc1-c1ccncc1 | inactive: 0.643 | inactive: -0.842 | inactive: 2.05
18 | CC(C)=CCN1Cc2c(Cl)ccc3[nH]c(=S)n(c23)C[C@@H]1C | inactive: -1.01 | inactive: 1.14 | inactive: 0.298

Single entries from above:
Value for NCCCC(N)C(=O)O (configuration not stated) [ornithine phenylacetate] under TEAD-luciferase reporter activity (compound concentration: 200 nM): inactive: 0.558
Value for CN(C)S(=O)(=O)c1cc2c(c3c1CCCC3)NC(=O)/C2=N/O under TEAD-luciferase reporter activity (compound concentration: 10 uM): inactive: -0.00192

Following part:

Row | Compound | TEAD-luciferase reporter activity (compound concentration: 200 nM) | TEAD-luciferase reporter activity (compound concentration: 2 uM) | TEAD-luciferase reporter activity (compound concentration: 10 uM)
19 | CC(C)c1oc2ccc(C#N)cc2c1-c1ccccn1 | inactive: -0.614 | inactive: 0.321 | inactive: -0.454
20 | Oc1c(Cc2ccccc2)ccc2ccccc12 | inactive: -0.25 | inactive: 2.37 | inactive: 2.08
21 | N/C(=N\O)c1ccc(O)c(O)c1 [amidox] | inactive: 1.97 | inactive: 1.02 | inactive: 0.506
22 | CCCCCCCCCCCCC/C=C/[C@@H](O)[C@H](COC1OC(CO)C(OC2OC(CO)C(OC3OC(CO)C(O)C(OC4OC(CO)C(O)C(O)C4O)C3NC(C)=O)C(OC3(C(=O)[O-])CC(O)C(NC(C)=O)C(C(O)C(O)CO)O3)C2O)C(O)C1O)NC(=O)CCCCCCCCCCCCCCCCC (some centres not stated) [Monosialoganglioside GM] | inactive: -1.45 | inactive: -0.027 | inactive: -0.368
23 | CCCCC#Cc1nc(NC)c2ncn([C@@H]3O[C@H](CO)[C@@H](O)[C@H]3O)c2n1 | inactive: 2.58 | inactive: 0.206 | inactive: 1.06
24 | CN(Cc1c(-c2ccc(Cl)cc2)nc2ccccn12)C(=O)c1c(Cl)cccc1Cl | inactive: -0.432 | inactive: -0.311 | inactive: 0.0868
25 | CNc1nccc(-c2cc3cc(C(=O)NC(CN(c4ccccc4)c4ccccn4)C(=O)O)ccc3[nH]2)n1 (configuration not stated) | inactive: 0.188 | inactive: -0.414 | inactive: -0.641
26 | COc1cc2ncc(N[C@H]3CC[C@H](O)CC3)nc2cc1OC | inactive: -0.698 | inactive: -1.59 | inactive: 1.76
27 | CC(C)(C#N)NC(=O)[C@H]1CC[C@H]2[C@@H]3CC[C@H]4NC(=O)C=CC4(C)[C@H]3CCC12C (some centres not stated) | inactive: 0.154 | inactive: -0.795 | inactive: -0.911
28 | Nc1ccn([C@H]2C[C@H](O)[C@@H](CO)O2)c(=O)n1 [Torcitabine] | inactive: -1.81 | inactive: 0.203 | inactive: 0.00528
29 | CN(c1ncccc1CNc1nc(Nc2ccc3c(c2)CC(=O)N3)ncc1C(F)(F)F)S(C)(=O)=O | inactive: -1.8 | – | inactive: -1.35
30 | C[C@@]12CCc3occc3[C@H]1CC[C@@]13C[C@@H](CC[C@H]12)[C@@](O)(CO)C3 | inactive: 1.07 | – | inactive: 0.768
31 | C[C@@]12CCc3occc3[C@H]1CC[C@@]13C[C@@H](CC[C@H]12)[C@@](O)(CO)C3 [Cafestol] | – | inactive: -0.978 | –
32 | C=C[C@]1(C)C[C@@H](OC(=O)CSC23CCN(CC2)CC3)C2(C)C3C(=O)CC[C@]3(CC[C@H]2C)[C@@H](C)[C@@H]1O (some centres not stated) | inactive: -0.881 | inactive: -1.01 | inactive: 0.837
33 | NCCCC[C@@H]1NC(=O)[C@@H](Cc2c[nH]c3ccccc23)NC(=O)[C@H](c2ccccc2)NC(=O)[C@@H]2C[C@@H](OC(=O)NCCN)CN2C(=O)[C@H](Cc2ccccc2)NC(=O)[C@H](Cc2ccc(OCc3ccccc3)cc2)NC1=O [Pasireotide diaspartate] | inactive: -0.841 | inactive: 0.314 | inactive: -0.94
34 | Nc1nc(N)c2ncn(COCCO)c2n1 | inactive: -0.883 | inactive: -1.28 | inactive: -2.15
35 | OC[C@H]1O[C@@H](n2cnc3c(NCc4ccco4)ncnc32)[C@H](O)[C@@H]1O [Kinetin riboside] | inactive: -1.09 | inactive: -1.17 | inactive: -0.318
